Binding data for two substances are collected here from article PMC10798966.

Chains of the proteins cited; added tags and fusions are not shown.
UniProt Q9D5V5: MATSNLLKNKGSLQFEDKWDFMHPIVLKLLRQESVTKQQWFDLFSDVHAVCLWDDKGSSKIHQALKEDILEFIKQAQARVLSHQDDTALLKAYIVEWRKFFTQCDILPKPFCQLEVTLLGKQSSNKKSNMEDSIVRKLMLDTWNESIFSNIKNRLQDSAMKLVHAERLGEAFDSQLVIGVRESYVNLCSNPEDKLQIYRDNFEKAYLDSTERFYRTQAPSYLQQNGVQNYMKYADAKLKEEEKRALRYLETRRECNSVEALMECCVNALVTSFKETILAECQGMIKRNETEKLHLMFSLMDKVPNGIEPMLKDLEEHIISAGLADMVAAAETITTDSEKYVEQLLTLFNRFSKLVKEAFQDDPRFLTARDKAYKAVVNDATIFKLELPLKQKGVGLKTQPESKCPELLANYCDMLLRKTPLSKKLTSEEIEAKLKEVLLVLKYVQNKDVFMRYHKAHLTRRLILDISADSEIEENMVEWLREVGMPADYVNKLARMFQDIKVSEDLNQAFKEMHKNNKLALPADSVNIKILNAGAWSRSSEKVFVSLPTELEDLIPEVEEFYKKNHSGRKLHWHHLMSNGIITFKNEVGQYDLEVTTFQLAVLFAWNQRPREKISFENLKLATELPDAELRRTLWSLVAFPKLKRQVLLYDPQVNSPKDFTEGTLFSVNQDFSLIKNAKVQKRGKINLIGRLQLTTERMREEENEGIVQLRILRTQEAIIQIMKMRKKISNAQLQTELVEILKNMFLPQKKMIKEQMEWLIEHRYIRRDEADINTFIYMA
UniProt Q93034: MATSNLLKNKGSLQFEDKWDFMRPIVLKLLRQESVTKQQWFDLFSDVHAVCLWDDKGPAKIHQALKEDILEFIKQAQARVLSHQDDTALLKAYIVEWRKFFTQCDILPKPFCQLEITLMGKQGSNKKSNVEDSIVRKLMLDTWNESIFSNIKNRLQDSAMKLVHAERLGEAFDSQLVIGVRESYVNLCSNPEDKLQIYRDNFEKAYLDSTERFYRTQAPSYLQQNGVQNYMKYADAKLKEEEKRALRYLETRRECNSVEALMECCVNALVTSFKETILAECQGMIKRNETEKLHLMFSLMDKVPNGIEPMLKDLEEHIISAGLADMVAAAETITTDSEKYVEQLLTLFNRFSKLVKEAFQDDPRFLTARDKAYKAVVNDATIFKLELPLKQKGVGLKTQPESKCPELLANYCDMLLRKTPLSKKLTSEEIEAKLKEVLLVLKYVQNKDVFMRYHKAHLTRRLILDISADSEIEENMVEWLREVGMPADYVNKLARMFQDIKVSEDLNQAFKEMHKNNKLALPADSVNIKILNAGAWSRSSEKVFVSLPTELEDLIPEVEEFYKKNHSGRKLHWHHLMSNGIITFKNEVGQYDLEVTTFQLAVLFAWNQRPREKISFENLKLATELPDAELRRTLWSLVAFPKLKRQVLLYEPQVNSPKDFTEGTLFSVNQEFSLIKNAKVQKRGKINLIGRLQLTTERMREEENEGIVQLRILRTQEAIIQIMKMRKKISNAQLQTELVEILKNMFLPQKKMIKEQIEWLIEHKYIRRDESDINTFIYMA
UniProt Q8BHD8: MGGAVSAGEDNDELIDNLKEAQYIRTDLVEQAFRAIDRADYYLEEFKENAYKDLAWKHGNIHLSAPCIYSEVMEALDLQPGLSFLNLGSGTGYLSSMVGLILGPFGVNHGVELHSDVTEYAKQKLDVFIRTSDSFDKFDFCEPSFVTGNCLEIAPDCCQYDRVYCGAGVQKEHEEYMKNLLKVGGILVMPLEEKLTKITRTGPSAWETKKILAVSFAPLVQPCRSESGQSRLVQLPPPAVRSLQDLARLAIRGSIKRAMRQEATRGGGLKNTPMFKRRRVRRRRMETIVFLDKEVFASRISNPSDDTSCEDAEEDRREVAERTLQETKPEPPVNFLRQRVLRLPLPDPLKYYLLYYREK
UniProt Q9NV79: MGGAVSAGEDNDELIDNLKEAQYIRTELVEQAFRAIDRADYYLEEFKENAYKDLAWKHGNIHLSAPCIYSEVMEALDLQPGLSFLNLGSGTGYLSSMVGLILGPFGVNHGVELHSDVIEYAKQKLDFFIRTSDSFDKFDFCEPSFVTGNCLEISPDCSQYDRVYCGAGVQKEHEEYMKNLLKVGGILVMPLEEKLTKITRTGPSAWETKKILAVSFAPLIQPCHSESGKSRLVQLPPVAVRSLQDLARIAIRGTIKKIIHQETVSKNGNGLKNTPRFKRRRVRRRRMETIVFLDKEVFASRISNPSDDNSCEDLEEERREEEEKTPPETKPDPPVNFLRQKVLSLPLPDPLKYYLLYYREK

Test [1] has as its target Myc-CUL5 (UniProt Q9D5V5). The test can be described thus: co-IP; HEK293T cells transfected with the indicated constructs for 24 h, MG132 (20 µM) 4 h before collection; lysis in 50 mM HEPES, 150 mM NaCl, 1% Triton X-100, 0.5% NP40; IP with anti-HA, anti-Myc or anti-GFP, western blotting.
In test [2] the target is CUL5 (endogenous, human) (human (endogenous in human primary CD8+ T cells)) (UniProt Q93034). Briefly: co-IP; endogenous proteins in human primary CD8 cells (NC and CUL5 KO), MG132 (20 µM) 4 h; IP with anti-CUL5 antibody, Western analysis with anti-CUL5 and anti-PCMTD2.

Results are given in words; binding and its absence hold for the method and conditions named. Binding seen in cells or lysates may run through a third protein. Some results given as binding are weak or reduced against the parent protein; the word gives no strength.

HA-PCMTD2 (from UniProt Q8BHD8 1-359): the binding result in test [1] is given as “binds”.

With “PCMTD2 (endogenous, human) (from UniProt Q9NV79 1-361)”, the binding entry in test [2] is recorded as “binds”.
